# Test results as given in the supplement of paper PMC6411743.
# Amino acid sequences for entries named in this document (tags omitted). A change or cut given only in a name is not applied to a line headed by its entry.
# UniProt Q12906, whole entry: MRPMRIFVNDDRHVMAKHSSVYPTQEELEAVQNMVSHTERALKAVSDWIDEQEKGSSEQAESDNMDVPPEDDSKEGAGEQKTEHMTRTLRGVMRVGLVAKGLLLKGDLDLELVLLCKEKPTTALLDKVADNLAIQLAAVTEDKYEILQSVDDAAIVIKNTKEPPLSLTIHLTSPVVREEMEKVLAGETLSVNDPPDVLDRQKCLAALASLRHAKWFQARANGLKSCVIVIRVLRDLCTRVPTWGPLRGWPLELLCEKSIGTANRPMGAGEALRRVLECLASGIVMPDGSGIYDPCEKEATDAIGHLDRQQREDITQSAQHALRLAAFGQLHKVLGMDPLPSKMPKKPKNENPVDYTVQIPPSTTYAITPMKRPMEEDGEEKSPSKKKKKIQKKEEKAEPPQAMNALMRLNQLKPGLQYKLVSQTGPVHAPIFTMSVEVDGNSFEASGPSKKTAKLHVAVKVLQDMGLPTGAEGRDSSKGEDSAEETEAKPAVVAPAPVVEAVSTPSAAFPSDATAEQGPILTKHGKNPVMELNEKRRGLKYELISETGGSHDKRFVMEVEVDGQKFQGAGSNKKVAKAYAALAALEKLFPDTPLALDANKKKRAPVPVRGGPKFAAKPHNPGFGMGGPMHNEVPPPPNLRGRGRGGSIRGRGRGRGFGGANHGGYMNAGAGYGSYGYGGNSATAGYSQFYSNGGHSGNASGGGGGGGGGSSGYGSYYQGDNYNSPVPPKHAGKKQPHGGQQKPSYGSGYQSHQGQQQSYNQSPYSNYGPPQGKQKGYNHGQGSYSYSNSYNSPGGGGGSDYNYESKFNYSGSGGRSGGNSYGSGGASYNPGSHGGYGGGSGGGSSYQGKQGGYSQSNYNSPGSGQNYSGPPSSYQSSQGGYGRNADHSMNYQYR
# UniProt Q01813: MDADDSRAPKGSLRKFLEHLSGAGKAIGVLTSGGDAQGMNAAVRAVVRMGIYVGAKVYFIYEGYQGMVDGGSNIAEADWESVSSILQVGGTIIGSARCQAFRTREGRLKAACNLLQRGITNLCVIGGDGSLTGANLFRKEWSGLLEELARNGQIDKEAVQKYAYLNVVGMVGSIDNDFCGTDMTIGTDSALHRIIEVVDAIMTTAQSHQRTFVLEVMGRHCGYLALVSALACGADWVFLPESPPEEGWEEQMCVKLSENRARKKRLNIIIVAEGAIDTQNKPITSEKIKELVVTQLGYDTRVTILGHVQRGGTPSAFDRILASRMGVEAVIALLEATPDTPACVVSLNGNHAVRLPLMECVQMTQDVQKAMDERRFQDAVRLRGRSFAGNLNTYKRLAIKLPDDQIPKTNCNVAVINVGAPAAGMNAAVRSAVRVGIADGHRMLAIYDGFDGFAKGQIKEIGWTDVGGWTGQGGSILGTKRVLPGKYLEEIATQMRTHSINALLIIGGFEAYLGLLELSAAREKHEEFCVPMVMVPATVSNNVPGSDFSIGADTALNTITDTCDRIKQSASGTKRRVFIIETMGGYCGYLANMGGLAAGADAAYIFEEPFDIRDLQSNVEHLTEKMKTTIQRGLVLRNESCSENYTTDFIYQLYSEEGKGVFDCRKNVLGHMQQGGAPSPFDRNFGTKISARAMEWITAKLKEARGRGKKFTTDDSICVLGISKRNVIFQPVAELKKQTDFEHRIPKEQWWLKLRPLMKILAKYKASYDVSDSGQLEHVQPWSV
# UniProt Q13618, whole entry: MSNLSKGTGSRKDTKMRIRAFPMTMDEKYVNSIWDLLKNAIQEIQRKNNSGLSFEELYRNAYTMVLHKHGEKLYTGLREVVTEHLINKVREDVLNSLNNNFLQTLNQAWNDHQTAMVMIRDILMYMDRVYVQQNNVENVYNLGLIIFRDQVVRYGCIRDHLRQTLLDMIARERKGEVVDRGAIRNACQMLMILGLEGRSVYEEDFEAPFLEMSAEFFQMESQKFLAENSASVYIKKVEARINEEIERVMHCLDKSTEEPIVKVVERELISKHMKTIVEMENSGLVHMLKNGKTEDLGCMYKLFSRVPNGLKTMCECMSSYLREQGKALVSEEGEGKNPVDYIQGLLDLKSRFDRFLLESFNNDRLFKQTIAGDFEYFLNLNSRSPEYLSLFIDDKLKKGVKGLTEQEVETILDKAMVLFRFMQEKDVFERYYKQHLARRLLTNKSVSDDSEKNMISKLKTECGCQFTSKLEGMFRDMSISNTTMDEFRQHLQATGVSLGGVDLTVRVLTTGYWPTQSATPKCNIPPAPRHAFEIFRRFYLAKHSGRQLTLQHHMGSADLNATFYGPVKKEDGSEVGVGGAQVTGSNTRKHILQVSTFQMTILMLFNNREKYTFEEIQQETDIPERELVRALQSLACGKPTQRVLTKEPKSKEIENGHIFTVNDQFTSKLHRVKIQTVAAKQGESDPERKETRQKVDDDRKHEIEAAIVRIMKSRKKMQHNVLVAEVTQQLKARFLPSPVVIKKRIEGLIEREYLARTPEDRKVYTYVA
# UniProt Q13616, whole entry: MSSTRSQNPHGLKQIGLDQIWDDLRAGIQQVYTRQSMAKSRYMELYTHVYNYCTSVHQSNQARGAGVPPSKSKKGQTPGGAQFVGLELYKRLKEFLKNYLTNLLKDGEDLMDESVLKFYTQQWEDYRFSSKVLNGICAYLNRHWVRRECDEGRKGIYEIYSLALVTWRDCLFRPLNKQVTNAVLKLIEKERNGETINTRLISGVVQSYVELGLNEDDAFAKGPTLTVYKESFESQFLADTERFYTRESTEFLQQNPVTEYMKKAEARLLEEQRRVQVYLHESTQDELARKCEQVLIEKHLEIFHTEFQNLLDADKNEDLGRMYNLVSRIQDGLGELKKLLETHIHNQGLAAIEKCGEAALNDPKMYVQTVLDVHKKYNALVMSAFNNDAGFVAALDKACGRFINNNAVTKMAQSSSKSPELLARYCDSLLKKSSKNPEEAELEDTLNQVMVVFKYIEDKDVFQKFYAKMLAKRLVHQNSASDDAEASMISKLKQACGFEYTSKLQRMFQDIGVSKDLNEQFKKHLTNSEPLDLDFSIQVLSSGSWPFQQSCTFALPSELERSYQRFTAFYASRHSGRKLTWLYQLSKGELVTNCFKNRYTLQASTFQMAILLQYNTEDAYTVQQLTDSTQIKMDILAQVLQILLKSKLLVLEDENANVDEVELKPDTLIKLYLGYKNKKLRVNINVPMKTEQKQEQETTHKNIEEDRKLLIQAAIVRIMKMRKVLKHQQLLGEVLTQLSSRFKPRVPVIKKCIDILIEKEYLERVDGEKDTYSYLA
# UniProt Q06547, whole entry: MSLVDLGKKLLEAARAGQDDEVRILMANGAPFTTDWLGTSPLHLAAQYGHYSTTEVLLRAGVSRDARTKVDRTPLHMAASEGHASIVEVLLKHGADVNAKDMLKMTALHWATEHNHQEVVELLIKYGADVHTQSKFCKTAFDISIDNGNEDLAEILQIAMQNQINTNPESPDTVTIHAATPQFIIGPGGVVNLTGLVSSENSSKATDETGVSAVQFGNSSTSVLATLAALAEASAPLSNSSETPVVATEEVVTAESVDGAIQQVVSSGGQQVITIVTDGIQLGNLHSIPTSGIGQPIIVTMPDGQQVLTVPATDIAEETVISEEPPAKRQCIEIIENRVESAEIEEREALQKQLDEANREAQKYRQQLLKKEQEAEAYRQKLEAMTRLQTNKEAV
# UniProt Q13094: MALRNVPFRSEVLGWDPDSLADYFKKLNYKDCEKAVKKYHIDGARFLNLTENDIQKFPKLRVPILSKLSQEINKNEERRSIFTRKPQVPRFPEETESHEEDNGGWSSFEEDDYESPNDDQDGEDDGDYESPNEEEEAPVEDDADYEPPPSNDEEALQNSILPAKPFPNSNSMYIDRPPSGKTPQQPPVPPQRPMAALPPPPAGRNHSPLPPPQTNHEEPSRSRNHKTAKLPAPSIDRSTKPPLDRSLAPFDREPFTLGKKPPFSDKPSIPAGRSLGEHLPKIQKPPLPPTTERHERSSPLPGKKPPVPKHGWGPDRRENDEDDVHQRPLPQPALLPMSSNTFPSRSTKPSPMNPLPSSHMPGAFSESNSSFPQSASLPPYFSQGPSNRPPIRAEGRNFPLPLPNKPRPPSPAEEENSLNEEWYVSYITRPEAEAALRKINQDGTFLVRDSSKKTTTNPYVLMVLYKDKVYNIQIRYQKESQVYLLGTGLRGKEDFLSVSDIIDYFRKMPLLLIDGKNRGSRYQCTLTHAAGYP
# UniProt Q13310, whole entry: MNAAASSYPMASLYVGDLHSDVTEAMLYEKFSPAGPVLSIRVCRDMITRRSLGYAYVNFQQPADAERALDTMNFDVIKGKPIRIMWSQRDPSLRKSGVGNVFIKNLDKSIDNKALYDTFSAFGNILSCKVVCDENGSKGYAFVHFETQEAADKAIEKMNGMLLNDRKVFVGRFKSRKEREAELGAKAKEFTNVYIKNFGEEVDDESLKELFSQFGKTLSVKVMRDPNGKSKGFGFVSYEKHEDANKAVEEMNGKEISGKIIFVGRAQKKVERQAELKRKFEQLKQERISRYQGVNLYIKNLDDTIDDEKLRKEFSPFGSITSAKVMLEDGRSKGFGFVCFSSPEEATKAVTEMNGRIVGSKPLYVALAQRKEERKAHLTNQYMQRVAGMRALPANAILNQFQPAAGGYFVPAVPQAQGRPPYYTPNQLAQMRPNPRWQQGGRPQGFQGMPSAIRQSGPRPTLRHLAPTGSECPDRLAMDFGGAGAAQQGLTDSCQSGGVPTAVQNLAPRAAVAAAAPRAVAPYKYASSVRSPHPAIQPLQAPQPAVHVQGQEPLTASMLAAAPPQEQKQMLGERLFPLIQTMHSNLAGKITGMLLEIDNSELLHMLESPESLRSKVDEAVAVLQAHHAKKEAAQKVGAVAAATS
# UniProt Q06546: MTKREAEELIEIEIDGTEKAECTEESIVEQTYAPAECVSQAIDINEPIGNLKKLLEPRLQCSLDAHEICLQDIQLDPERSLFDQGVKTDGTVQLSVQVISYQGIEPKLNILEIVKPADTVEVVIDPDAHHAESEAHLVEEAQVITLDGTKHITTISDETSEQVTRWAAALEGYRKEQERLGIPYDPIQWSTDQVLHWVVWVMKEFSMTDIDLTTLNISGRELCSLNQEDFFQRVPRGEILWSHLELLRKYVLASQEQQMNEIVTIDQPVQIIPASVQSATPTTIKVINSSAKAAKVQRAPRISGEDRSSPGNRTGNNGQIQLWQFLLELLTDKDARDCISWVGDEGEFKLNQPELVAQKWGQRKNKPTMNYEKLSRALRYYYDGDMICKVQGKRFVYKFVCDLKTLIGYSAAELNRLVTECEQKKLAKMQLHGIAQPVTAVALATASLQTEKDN
# UniProt Q13588: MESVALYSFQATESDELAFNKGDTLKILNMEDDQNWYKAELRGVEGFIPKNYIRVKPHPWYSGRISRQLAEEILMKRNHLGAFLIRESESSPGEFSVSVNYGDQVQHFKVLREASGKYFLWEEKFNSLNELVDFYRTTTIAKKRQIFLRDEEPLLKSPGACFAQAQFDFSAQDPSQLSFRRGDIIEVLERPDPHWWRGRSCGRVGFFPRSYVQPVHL
# UniProt Q13952: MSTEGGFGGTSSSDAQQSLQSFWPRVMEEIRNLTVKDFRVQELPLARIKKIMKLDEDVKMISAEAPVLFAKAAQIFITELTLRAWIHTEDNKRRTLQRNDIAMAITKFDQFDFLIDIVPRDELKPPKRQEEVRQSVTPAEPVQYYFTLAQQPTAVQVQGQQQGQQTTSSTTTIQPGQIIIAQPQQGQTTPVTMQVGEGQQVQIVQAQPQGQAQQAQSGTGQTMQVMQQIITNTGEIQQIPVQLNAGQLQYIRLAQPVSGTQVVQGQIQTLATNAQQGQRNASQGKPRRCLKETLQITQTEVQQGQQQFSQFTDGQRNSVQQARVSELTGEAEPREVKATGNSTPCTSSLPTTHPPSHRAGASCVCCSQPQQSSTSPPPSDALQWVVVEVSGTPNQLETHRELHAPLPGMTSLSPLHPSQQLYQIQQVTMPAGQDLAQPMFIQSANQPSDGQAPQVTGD
# UniProt Q12972: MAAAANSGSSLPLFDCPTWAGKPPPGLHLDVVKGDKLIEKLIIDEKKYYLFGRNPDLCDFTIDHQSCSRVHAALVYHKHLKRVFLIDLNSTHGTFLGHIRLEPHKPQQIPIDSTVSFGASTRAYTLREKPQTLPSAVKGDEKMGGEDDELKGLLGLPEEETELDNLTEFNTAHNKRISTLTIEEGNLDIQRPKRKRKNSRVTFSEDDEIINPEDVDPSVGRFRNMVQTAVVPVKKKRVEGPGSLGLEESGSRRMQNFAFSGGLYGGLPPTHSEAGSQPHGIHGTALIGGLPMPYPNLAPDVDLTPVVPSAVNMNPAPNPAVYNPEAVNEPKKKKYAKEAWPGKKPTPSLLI
# ± gives the standard deviation of the averaged measurements. Only a part is listed here, and it is no random draw.
# Compound: Nc1ncnc2c1ncn2[C@@H]1O[C@H](COP(=O)(O)OP(=O)(O)OP(=O)(O)O)[C@@H](O)[C@H]1O [adenosine triphosphate]
# Assay: NP40-soluble protein abundance relative to vehicle (solubility fold change) (ratio); higher = more soluble protein in presence of ATP
# Summary of the method: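 Jurkat crude lysate (Dounce-homogenised) was treated with eight concentrations from 0.1 to 10 mM for 10 min at room temperature, then 3 min at 37 °C. It was solubilised with 0.8% NP40 and benzonase (60 min, 4 °C) and ultracentrifuged, and the supernatant was TMT-labelled for LC-MS/MS. Intensities were vsn-normalised, and the value is the fold change against the NP40-processed vehicle per replicate, from three independent experiments.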
Target,NP40-soluble protein abundance (concentration: 1mM),NP40-soluble protein abundance (concentration: 2mM),NP40-soluble protein abundance (concentration: 4mM),NP40-soluble protein abundance (concentration: 6mM),NP40-soluble protein abundance (concentration: 8mM),NP40-soluble protein abundance (concentration: 10mM)
ITPK1 (UniProt Q13572),0.914 ± 0.053,0.887 ± 0.077,0.89 ± 0.064,0.952 ± 0.14,0.881 ± 0.059,0.909 ± 0.022
UniProt Q12906 and related entries,1.09 ± 0.042,1.13 ± 0.069,1.17 ± 0.083,1.26 ± 0.07,1.29 ± 0.093,1.39 ± 0.11
PFKP (UniProt Q01813),1.05 ± 0.043,1 ± 0.012,0.99 ± 0.022,0.986 ± 0.015,1.01 ± 0.03,0.993 ± 0.058
UniProt Q13618 and related entries,1.02 ± 0.1,0.997 ± 0.1,0.999 ± 0.064,0.966 ± 0.096,1.02 ± 0.075,0.985 ± 0.068
CUL1 (UniProt Q13616),0.993 ± 0.083,0.97 ± 0.053,0.933 ± 0.054,0.934 ± 0.056,0.964 ± 0.042,0.941 ± 0.042
UniProt Q06547 and related entries,0.947 ± 0.018,0.968 ± 0.021,0.93 ± 0.041,0.964 ± 0.026,0.941 ± 0.03,0.929 ± 0.057
UniProt Q13094 and related entries,0.956 ± 0.053,0.96 ± 0.024,0.935 ± 0.038,0.962 ± 0.043,0.929 ± 0.034,0.941 ± 0.028
UniProt Q13310 and related entries,0.973 ± 0.031,0.969 ± 0.032,0.951 ± 0.054,1.02 ± 0.076,0.989 ± 0.049,1 ± 0.063
GABPA (UniProt Q06546),0.967 ± 0.024,0.97 ± 0.028,0.94 ± 0.035,0.923 ± 0.071,0.917 ± 0.019,0.939 ± 0.045
GRAP (UniProt Q13588),1.14 ± 0.21,1.06 ± 0.086,1.13 ± 0.16,1.08 ± 0.18,1.1 ± 0.092,1.13 ± 0.11
UniProt Q13952 and related entries,0.92 ± 0.05,0.934 ± 0.029,0.926 ± 0.039,0.951 ± 0.015,0.911 ± 0.011,0.89 ± 0.039
RIPK1 (UniProt Q13546),1.04 ± 0.054,1.04 ± 0.046,1.01 ± 0.053,0.962 ± 0.072,1.04 ± 0.034,1.02 ± 0.044
HSPA14 (UniProt Q0VDF9),1 ± 0.029,0.997 ± 0.029,0.979 ± 0.036,0.964 ± 0.028,0.965 ± 0.043,0.977 ± 0.026
UniProt Q07002 and related entries,1.3 ± 0.058,1.28 ± 0.04,1.234 ± 0.0058,1.28 ± 0.03,1.26 ± 0.043,1.275 ± 0.0099
PPP1R8 (UniProt Q12972),0.965 ± 0.063,0.958 ± 0.042,0.941 ± 0.051,0.975 ± 0.038,0.899 ± 0.031,0.931 ± 0.022

# Copied from the list:
# UniProt Q12906 and related entries – NP40-soluble protein abundance (concentration: 4mM): 1.17 ± 0.083
# PFKP (UniProt Q01813) – NP40-soluble protein abundance (concentration: 8mM): 1.01 ± 0.03
